Results: PubChem BioAssay AID1347075 (National Center for Advancing Translational Sciences (NCATS), 2019)
The whole screen tested about 400,000 compounds, of which about 5,500 (1.4%) were called active. Inconclusive results, whose numbers are uncertain, are shown with a selection of clear calls. The call rests on the fitted dose curve; in most records, active means well fitted cell-killing curve with a large enough effect; inconclusive means small, poorly fitted or top-dose-only effect, or effect the other way; inactive means flat fitted curve, though single readings scatter. Where the call is inconclusive, the potency comes from a doubtful curve fit.

experiment: qHTS assay for MDR1-selective chemotherapeutics: Primary screen using the parental adenocarcinoma cell KB-3-1; settings: KB-3-1 viability, CellTiter-Glo ATP luminescence, 72 h; activity change, negative = cytotoxic: at 46.1 µM (top of the series); further: nearly all actives have a fitted effect of over 60% in size
Outline: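 72 h, 37 °C compound treatment of KB-3-1 parental cells; CellTiter-Glo added, 10 min, luminescence read. Data corrected against DMSO-only plates and normalized before curve fitting.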
On the % scale 0 is the no-effect control and ±100 the full control effect; potency means the concentration at half of the fitted maximal effect.

Row | Compound | activity change, negative = cytotoxic | Potency
1 | O=C(NCc1cccc(C(F)(F)F)c1)c1csc([C@@H]2O[C@H](CO)[C@H](O)[C@H](O)[C@H]2O)n1 | inactive: 14.1% | –
2 | COc1ccc(OC)c(CCNC(=O)Cn2ccc3cc(S(=O)(=O)N4CCCCC4)ccc32)c1 | – | inconclusive: 16.4 µM [cytotoxic, partial curve, poor fit]
3 | O=C(Nc1nnc(SCc2ccc(Cl)cc2)s1)c1ccco1 | – | inconclusive: 18.4 µM [cytotoxic, single point]
4 | COc1ccc(OC)c(-c2noc(N3CCN(c4cc(C)ccc4C)CC3)n2)c1 | inactive: 0.439% | –
5 | COc1ccc(NC(=O)C(Cc2ccccc2)NS(=O)(=O)c2ccc3c(c2)CCN3C(C)=O)cc1 (centres undefined) | inactive: -1.22% | –
6 | CC1(C)C[C@H](O)[C@]2(CO)[C@H](O)C[C@]3(C)C(=CCC4[C@@]5(C)CC[C@H](O)C(C)(C)C5CC[C@]43C)[C@@H]2C1 (some centres undefined) | – | inconclusive: 29.1 µM [cytotoxic, single point]
7 | COc1ccccc1C1=NC(c2ccc(F)cc2)N=C1C (centres undefined) | – | active: 18.4 µM
8 | O=C(/C=C/c1ccccc1)NC(=S)Nc1ccc2c3c(cccc13)CC2 | – | active: 4.11 µM
9 | Cc1cc(C)c2nc(SCC(=O)Nc3ccc(S(=O)(=O)N4CCCC4)cc3)c(C)cc2c1 | inactive: -4.43% | –
10 | Cc1cc(C)c2nc(N3CCC(C(=O)NCCCN4CCCCC4)CC3)sc2c1 | – | inconclusive: 16.4 µM [cytotoxic, single point]
11 | COc1cccc2cc(-c3nnc(SCC(=O)NCCc4ccccc4)n3C)oc12 | – | inconclusive: 0.058 µM [rising, full curve]
12 | Cc1ccc(C2CC(c3cccs3)=NN2C(=O)CCl)cc1 (centres undefined) | – | inconclusive: 29.1 µM [cytotoxic, single point]
13 | O=C(/C=C/c1ccc(Cl)cc1)N1CCN(c2c(Cl)cccc2[N+](=O)[O-])CC1 | inactive: -3.29% | –
14 | Fc1ccc(-n2nnnc2-c2cnc(-c3cccs3)nc2C(F)(F)F)cc1 | – | inconclusive: 8.2 µM [cytotoxic, partial curve]
15 | O=c1nc(Oc2ccccc2)nc2ncccn12 | – | inconclusive: 29.1 µM [cytotoxic, single point]
16 | Clc1ccc(CONc2ncnc3nonc23)c(Cl)c1 | – | inconclusive: 29.1 µM [cytotoxic, single point]
17 | CCOC(=O)c1cc2c(=O)n3ccccc3nc2n(C)c1=NC(=O)c1c(-c2ccccc2Cl)noc1C | inactive: -0.864% | –
18 | O=C1CCN(C(=O)Cc2ccccc2)c2ccccc21 | – | inconclusive: 0.13 µM [rising, full curve]
19 | COC(=O)c1sccc1NC(=S)N1CCN(c2cc(C)ccc2C)CC1 | – | inconclusive: 23.1 µM [cytotoxic, single point]
20 | O=C(NCC1CCOCC1)C1Cc2c(-c3ccccc3Oc3ccccc3)ccnc2O1 (centres undefined) | – | inconclusive: 29.1 µM [cytotoxic, single point]
21 | O=C(/C=C/c1cccs1)NNC(=O)c1cccc([N+](=O)[O-])c1 | inactive: -14.1% | –
22 | CCOc1ccc(CNC(=O)Cn2ccc3cc(S(=O)(=O)N4CCCCCC4)ccc32)cc1 | – | inconclusive: 14.6 µM [cytotoxic, partial curve]

Individual results from the entries so far:
In activity change, negative = cytotoxic, CCOC(=O)c1cc2c(=O)n3ccccc3nc2n(C)c1=NC(=O)c1c(-c2ccccc2Cl)noc1C has the entry inactive: -0.864%
In Potency, O=C(Nc1nnc(SCc2ccc(Cl)cc2)s1)c1ccco1 has the entry inconclusive: 18.4 µM [cytotoxic, single point]

(next part)

Row | Compound | activity change, negative = cytotoxic | Potency
23 | Cc1cccc(NC(=O)COc2coc(CN3CCN(c4ccccc4)CC3)cc2=O)c1 | inactive: -9.22% | –
24 | Cc1cccc(-c2cnc(C(O)c3ccc(F)c(C)c3)[nH]2)c1 (centres undefined) | inactive: 0% | –
25 | CCOc1ccc(-c2cc(C(=O)NCCCN3CCN(CC)CC3)c3ccccc3n2)cc1 | – | inconclusive: 20 µM [cytotoxic, single point]
26 | COc1ccc(-c2c(-c3ccc(O)cc3O)n[nH]c2C)cc1OC | – | inconclusive: 29.1 µM [cytotoxic, single point]
27 | O=C(OCn1ncc(Cl)c(Cl)c1=O)c1ccc(C(F)(F)F)cc1 | – | active: 7.31 µM
28 | COc1ccc(NC(=O)CN2C(=O)CSc3ccc(S(=O)(=O)N(C)C)cc32)cc1Cl | inactive: 1.63% | –
29 | CC(=O)Nc1nc(C)c(-c2csc(Nc3ccc(O)cc3)n2)s1 | – | active: 8.2 µM
30 | COC(=O)c1c(C)[nH]c(C(=O)OCC(=O)NC(C)(C)C)c1C | – | inconclusive: 11.6 µM [cytotoxic, partial curve]
31 | Cc1ccc(Cn2nnc(C(=O)Nc3cccc(C)c3C)c2N)cc1 | inactive: -25.8% | –
32 | CN(C)CCCNC(=O)C[C@H]1C[C@H](C(=O)N2CCOCC2)[C@@]2(CCC3CCCC3)c3[nH]c4cc(-c5ccco5)ccc4c3CCN2C1=O | – | inconclusive: 29.1 µM [cytotoxic, single point]
33 | CN(Cc1ccc(Cl)cc1)C(CCc1ccccc1)C(=O)NC1CCCCC1 (centres undefined) | inactive: -1.16% | –
34 | CCCCCCN1CCN(C2CN(Cc3cn(Cc4cccc(Cl)c4)nn3)S(=O)(=O)C2)CC1 (centres undefined) | – | inconclusive: 29.1 µM [cytotoxic, single point]
35 | Cc1ccc(S(=O)(=O)N2C[C@H]3n4c(=O)ccc(=O)n4C[C@H](OC(=O)NC4CCCC4)[C@@]3(O)C2)cc1 | – | inconclusive: 23.1 µM [cytotoxic, single point]
36 | COC(=O)C1=C(C)N(Cc2ccccc2)C(=NCCc2c[nH]c3ccccc23)N[C@H]1c1cccc(C(F)(F)F)c1 | – | inconclusive: 20.6 µM [cytotoxic, single point]
37 | O=c1c2cc3c(cc2n(Cc2ccccc2)c(=O)n1Cc1nc(-c2ccccc2)no1)OCO3 | inactive: -3.66% | –
38 | CCOc1ccc(C(=O)c2cc([N+](=O)[O-])ccc2N2CCOCC2)cc1 | – | active: 0.0291 µM
39 | CCNC(=O)/C(C#N)=C/c1c(N(Cc2ccccc2)Cc2ccccc2)nc2ccccn2c1=O | – | inconclusive: 29.1 µM [cytotoxic, single point]
40 | Cc1ccccc1NC(=S)NCCc1c[nH]c2ccccc12 | inactive: 1.7% | –
41 | CS(=O)(=O)c1ccc(Cl)c(NC(=O)CNC(=O)c2ccc3c(c2)OCO3)c1 | inactive: -8.01% | –
42 | COc1ccc(C(C(=O)NC2CCCCC2)N(Cc2cccs2)C(=O)Cc2c[nH]c3ccccc23)cc1OC (centres undefined) | – | inconclusive: 23.1 µM [cytotoxic, single point]
43 | O=c1[nH][nH]c2cc([N+](=O)[O-])ccc12 | – | inconclusive: 16.4 µM [cytotoxic, partial curve]
44 | CCOC(=O)C1(C)CCN1C(=O)c1ccc(N(C)C)cc1 (centres undefined) | inactive: 8.76% | –
